Record: PubChem BioAssay AID1259289 (Sanger Institute, 2017)
This is an unselected part of 794 reagents. 16 of them (2%) count as active. 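Active marks cell loss from silencing alone; drug synergy shows only in the synergy scores, not the calls.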 Entries without a mark were called inactive. Viability is capped at 1. Not given: the amount of reagent, the time to read-out.

Test: 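Find kinases whose loss adds to targeted drugs in killing bowel cancer cells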 (primary screen)
Cell system: human LS513 colorectal cancer cells
Knock-down reagent: siRNA pool against human genes
Challenge: anchor drug BYL719 at 1 µM, cetuximab at 5 µg/ml or trametinib at 10 nM, or DMSO vehicle alone; exposure time not given
Measurement: 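Survival versus non-targeting pool for each arm averaged over replicates, robust z-score in the arm with DMSO only, and synergy scores for BYL719, cetuximab or trametinib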
Reading the numbers: robust z-score, siRNA alone (DMSO): higher = more viable cells; strongly negative means essential; viability with DMSO vs control: higher = more viable cells; synergy score with BYL719: higher = stronger combined killing with BYL719; synergy score with cetuximab: higher = stronger combined killing with cetuximab; synergy score with trametinib: higher = stronger combined killing with trametinib
Call rule: 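Called essential when silencing alone under DMSO gives a robust z-score below -3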
Calls: active = essential (knock-down alone); inactive = not essential

Gene	PubChem SID	robust z-score, siRNA alone (DMSO)	viability with DMSO vs control (fraction of control)	synergy score with BYL719	synergy score with cetuximab	synergy score with trametinib
RET	SID135620630	0.561	1	-0.0312	-0.074	0.0507
PRKAG2	SID135621825	0.561	1	0.105	0.0331	0.0167
PTK7	SID135620629	-1.59	0.694	0.0256	0.115	0.0474
WNK2	SID56479037	-0.000985	0.92	0.0901	-0.0859	-0.121
PTPN11	SID134310183	0.561	1	-0.134	-0.0968	0.0114
ITPKC	SID56479112	0.191	0.947	-0.0141	0.114	-0.00989
BCOR	SID135620845	0.186	0.947	0.0931	0.122	0.0522
HIPK1	SID135620891	0.129	0.939	-0.0344	0.0796	0.0282
PIK3CA	SID135620605	0.561	1	-0.134	-0.0386	0.0374
TRIB3	SID56478723	0.528	0.995	0.0646	-0.101	-0.0614
PRKAR2A	SID152153424	0.561	1	-0.134	-0.0223	0.0149
MAPK9	SID56478662	0.561	1	-0.134	-0.0968	-0.0549
BMX	SID152147462	0.561	1	-0.0764	-0.0872	0.0544
WT1	SID152147201	0.561	1	-0.134	-0.0968	0.00319
PRKD3	SID56478959	0.561	1	-0.0272	0.18	0.073
PAPSS1	SID56479195	0.561	1	-0.134	-0.0968	0.038
DLG3	SID135621778	0.117	0.937	0.171	-0.0833	-0.00289
CDK3	SID56478597	-0.309	0.877	-0.241	-0.0565	0.00211
TWF1	SID56478546	0.561	1	-0.134	-0.0968	-0.0236
AAK1	SID152151067	-0.344	0.872	0.0477	0.113	-0.0282
PRAG1	SID152147410	-2.77	0.527	0.0357	0.124	-0.024
CSNK1G2	SID152151854	0.561	1	-0.134	-0.0968	0.0501
MAP3K19	SID135620896	-0.597	0.836	-0.0209	0.0509	-0.0533
AURKB	SID152151121	-1.16	0.756	0.0683	0.122	0.0637
TESK1	SID152149255	0.561	1	-0.134	-0.0968	-0.000752
FGFRL1	SID135622448	0.409	0.978	-0.102	0.102	0.0682
PIK3C2B	SID56479135	0.561	1	-0.0466	-0.0336	-0.0123
MARK3	SID56478669	0.561	1	0.213	0.189	0.0741
ERBB4	SID135620618	0.561	1	0.0603	0.0561	0.0567
MET	SID56478534	0.561	1	-0.101	-0.0968	-0.0193
BUB1	SID152152440	0.561	1	0.0209	-0.0816	0.0244
ITK	SID135620623	0.561	1	-0.134	-0.0968	-0.0422
KRAS	SID134310727	-5.69 (active)	0.113	-0.102	-0.0586	-0.0518
RIPK2	SID152156478	0.427	0.981	0.217	0.121	0.0345
TTBK1	SID135620866	-0.754	0.813	-0.279	-0.247	0.0218
ARID1A	SID152147093	0.561	1	0.0548	0.161	0.0259
PASK	SID56478950	0.561	1	-0.0528	-0.0968	0.05
PRKCD	SID56478673	-1.24	0.744	-0.0421	-0.0878	-0.0973
PSKH2	SID56479040	0.561	1	0.0516	0.0164	0.0746
DAPK2	SID152156399	0.561	1	0.0483	-0.0968	-0.0247
CAMK4	SID56478933	0.561	1	-0.0764	-0.00234	0.0163
PSTK	SID134320501	-0.105	0.906	-0.135	-0.0403	-0.00155
HUNK	SID56478785	-2.51	0.565	-0.0584	0.103	0.0295
LATS2	SID152149461	0.561	1	-0.134	-0.0968	0.047
GRK6	SID135620853	-0.912	0.791	-0.0412	-0.00355	0.0162
BMPR1B	SID56478926	0.561	1	0.184	-0.0339	-0.031
ITPKA	SID152154114	0.561	1	-0.0492	-0.0968	0.0491
NEK4	SID152155431	-0.93	0.788	0.0331	-0.0339	-0.000634
SIK1	SID152146842	0.561	1	-0.0999	0.036	0.0476
PFKFB2	SID135621246	0.561	1	0.073	-0.0845	0.0751
